Experimental data: publication PMC8274477
Results are given in words; binding and its absence hold for the method and conditions named. Some binding calls cover weakened binding; strength is not graded here.

By UniProt entry, the sequences of proteins in these tests, tags left out.
UniProt Q96AZ6: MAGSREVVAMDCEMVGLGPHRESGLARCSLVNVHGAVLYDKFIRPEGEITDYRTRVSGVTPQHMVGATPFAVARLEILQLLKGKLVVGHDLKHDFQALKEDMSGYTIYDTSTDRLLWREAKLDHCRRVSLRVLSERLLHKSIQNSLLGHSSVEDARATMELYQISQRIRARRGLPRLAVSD
UniProt Q9Y276: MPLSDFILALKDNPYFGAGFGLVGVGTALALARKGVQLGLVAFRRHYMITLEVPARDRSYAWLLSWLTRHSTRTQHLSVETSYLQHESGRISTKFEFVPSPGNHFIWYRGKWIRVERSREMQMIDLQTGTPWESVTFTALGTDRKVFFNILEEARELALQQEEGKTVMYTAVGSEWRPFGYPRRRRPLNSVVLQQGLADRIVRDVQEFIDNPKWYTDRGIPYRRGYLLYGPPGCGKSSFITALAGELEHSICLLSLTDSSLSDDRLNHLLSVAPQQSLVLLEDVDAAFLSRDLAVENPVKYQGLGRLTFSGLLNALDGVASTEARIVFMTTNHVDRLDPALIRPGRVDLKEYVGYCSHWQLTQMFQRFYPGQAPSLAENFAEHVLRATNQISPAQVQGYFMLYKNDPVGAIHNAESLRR
UniProt Q8TBF8: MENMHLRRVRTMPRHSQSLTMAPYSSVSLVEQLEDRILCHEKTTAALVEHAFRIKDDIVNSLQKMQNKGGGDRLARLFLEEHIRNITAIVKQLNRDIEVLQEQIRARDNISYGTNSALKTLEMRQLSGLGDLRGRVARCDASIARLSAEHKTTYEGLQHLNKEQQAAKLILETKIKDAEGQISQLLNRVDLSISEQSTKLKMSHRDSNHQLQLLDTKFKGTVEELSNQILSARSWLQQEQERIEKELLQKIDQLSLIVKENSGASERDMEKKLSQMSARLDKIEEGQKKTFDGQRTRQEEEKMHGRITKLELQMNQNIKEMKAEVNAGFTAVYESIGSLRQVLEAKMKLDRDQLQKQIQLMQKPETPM
UniProt Q01844: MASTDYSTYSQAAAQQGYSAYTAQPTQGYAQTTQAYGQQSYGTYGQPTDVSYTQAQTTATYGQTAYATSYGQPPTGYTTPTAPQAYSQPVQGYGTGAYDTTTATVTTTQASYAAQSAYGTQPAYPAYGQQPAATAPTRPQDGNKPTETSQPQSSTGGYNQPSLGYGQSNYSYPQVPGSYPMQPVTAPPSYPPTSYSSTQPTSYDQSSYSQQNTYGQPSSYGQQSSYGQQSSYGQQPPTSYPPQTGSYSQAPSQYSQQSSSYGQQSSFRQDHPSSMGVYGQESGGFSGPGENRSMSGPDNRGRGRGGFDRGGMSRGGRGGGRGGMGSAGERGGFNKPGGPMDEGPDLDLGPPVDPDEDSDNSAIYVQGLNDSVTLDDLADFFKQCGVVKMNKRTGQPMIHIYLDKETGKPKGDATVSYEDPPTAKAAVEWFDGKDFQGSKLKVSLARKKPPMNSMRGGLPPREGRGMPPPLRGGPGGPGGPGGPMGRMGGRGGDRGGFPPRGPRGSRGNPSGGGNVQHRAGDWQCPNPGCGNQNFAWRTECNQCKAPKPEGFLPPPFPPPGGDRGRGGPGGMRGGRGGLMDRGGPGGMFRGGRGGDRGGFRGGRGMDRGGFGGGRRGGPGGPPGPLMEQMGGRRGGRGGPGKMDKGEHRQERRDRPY
UniProt Q9C0C7: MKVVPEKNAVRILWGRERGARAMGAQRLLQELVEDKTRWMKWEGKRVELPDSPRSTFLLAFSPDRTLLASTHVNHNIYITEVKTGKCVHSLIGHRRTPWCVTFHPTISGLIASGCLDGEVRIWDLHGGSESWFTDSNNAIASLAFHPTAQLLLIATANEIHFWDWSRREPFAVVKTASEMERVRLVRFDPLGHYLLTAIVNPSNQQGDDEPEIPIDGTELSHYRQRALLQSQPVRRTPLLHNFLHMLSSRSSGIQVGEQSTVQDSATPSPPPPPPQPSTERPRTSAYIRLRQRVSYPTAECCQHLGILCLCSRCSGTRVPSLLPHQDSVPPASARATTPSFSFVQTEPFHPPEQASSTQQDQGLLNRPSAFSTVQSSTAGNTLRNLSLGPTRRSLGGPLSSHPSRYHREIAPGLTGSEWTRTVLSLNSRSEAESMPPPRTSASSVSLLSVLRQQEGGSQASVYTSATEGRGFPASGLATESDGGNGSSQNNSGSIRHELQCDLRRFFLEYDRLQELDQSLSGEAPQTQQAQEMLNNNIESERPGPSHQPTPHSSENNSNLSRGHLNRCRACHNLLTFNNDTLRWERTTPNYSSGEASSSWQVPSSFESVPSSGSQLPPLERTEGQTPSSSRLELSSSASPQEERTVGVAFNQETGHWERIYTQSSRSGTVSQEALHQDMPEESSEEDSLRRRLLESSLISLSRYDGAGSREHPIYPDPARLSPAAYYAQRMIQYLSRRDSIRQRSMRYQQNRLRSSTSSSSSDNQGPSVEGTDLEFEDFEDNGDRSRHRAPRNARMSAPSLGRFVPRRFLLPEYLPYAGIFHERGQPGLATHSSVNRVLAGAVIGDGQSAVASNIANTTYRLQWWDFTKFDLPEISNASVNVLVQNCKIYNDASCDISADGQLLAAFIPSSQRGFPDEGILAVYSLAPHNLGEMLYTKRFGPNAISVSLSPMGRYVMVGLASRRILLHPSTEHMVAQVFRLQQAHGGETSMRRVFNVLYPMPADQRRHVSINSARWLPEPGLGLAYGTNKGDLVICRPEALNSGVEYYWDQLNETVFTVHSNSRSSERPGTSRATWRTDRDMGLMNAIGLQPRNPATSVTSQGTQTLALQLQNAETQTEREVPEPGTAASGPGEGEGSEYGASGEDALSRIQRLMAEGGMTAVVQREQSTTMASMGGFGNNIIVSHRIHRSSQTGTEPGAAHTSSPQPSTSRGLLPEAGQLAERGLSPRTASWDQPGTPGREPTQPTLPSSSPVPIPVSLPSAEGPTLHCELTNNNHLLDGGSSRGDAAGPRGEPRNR
UniProt P22392: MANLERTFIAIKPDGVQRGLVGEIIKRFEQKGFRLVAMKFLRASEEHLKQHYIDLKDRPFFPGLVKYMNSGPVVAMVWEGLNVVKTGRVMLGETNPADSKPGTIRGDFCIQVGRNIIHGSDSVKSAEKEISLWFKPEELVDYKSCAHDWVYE

Assays:
Assay in all cases: peptide or protein array; HuProt human proteome microarray; 5 ug/5 ml biotin-labelled LUBAC or OTULIN in solution, 1 h at room temperature; Cy5-streptavidin, scanned at 635 nm; BSA as negative control; hits: Z-score >= 3 and I_(Mean_Ratio) >= 1.4; both purified
ISG20 (human) = ISG20 (human) (UniProt Q96AZ6)
SMARCAL1 (human) = target: T1, SMARCAL1 (human) (UniProt Q9NZC9)
T1 sequence: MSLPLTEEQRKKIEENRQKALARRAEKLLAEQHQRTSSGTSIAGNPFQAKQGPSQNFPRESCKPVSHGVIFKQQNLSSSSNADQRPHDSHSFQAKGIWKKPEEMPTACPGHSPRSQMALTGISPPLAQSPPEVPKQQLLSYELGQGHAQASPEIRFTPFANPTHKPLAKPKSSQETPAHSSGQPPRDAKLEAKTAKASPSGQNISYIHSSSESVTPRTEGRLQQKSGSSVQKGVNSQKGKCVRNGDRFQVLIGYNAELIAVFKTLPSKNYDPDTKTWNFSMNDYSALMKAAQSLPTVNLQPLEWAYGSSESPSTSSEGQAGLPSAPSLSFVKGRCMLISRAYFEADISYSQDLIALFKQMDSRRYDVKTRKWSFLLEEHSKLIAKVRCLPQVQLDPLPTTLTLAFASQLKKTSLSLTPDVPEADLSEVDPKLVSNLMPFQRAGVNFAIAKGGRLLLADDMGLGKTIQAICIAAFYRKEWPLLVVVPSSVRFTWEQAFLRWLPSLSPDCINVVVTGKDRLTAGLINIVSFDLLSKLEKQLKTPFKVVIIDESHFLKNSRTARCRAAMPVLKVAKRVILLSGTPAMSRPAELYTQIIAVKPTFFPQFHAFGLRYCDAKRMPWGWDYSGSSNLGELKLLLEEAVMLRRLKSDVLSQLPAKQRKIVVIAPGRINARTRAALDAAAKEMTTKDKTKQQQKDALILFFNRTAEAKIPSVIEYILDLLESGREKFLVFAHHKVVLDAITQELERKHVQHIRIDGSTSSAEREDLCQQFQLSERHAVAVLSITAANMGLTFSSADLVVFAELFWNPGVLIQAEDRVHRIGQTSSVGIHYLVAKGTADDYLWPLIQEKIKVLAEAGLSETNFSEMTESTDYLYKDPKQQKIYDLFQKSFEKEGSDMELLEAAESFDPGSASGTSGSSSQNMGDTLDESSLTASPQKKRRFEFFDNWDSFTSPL

BCS1L (human) = BCS1L (human) (UniProt Q9Y276)
FAM81A (human) = FAM81A (human) (UniProt Q8TBF8)
KHDRBS3 (human) = target: T2, KHDRBS3 (human) (UniProt O75525)
T2 sequence: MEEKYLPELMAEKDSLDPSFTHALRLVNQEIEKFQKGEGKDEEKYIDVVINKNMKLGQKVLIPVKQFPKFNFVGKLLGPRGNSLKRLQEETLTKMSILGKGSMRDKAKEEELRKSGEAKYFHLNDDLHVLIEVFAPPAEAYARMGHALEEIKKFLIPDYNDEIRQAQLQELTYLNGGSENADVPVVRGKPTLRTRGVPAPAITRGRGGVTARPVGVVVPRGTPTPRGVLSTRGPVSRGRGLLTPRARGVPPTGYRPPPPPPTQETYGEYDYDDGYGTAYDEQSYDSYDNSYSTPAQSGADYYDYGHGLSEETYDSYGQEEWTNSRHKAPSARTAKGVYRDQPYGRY

EWSR1 (human) = EWSR1 (human) (UniProt Q01844)
AMBRA1 (human) = AMBRA1 (human) (UniProt Q9C0C7)
NME2 (human) = NME2 (human) (UniProt P22392)
TST (human) = target: T3, TST (human) (UniProt Q16762)
T3 sequence: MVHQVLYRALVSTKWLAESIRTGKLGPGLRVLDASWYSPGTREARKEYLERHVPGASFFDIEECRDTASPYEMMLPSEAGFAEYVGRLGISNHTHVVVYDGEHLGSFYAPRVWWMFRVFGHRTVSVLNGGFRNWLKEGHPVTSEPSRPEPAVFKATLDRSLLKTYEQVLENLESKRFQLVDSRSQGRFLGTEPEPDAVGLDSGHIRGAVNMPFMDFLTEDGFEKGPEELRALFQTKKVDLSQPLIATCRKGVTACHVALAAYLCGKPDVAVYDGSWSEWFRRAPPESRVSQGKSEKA

Measured: binding

linear ubiquitin chain assembly complex (LUBAC), purified as HIS-tagged HOIP with the subunit HOIL-1, biotin-labelled (from UniProt Q96EP0 1-1072; Q9BYM8 1-510)
binds: all assays above
